Source: PubChem BioAssay AID504764 (Drosophila RNAi Screening Center, 2011)

Test: 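Genome-wide screen for regulators of Notch-driven gene expression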 (primary screen)
System: Drosophila Kc167 cells
Reagent: long dsRNA against Drosophila genes
Time to read-out: about 5 days (4 days dsRNA, then 24 h after transfection)
Challenge: transfection of constitutively active membrane-tethered Notch lacking the extracellular domain, read 24 h later
Read-out: 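Light from a Notch-responsive E(spl)m3 luciferase reporter under active Notch, with control-promoter and no-Notch reporter wells to normalise; raw counts from paired wells a and b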
Direction: induced reporter light, run 1, well a and induced reporter light, run 1, well b: higher = more light from the Notch target reporter with active Notch; control promoter light, run 1, well a and control promoter light, run 1, well b: higher = more light from the viral control promoter (cell number, transfection, viability); uninduced reporter light, run 1, well a: higher = more light from the Notch target reporter without active Notch
Rule for the call: 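Hit if the duplicate-averaged log2 ratio of induced to control-promoter light gives a plate-wise z beyond ±2, or induced to uninduced beyond ±1.8; weak-control or discordant-duplicate wells dropped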
Meaning of the calls: active = modifier hit (raised or lowered Notch signal); inactive = not a hit
The deposit covers about 22,000 reagents; below is a random part of those with a known target gene and a result. In the full data, 403 (1.9%) are marked active. 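Unnormalised raw counts per well; ratio z-scores behind the hit calls and whether each hit raises or lowers signal are not deposited.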 Reagents against one gene are numbered here. Names joined by + are all predicted targets of the reagent. No sequences are given here. Not given: the amount of reagent.

| gene | dsRNA no. | induced reporter light, run 1, well a | induced reporter light, run 1, well b | control promoter light, run 1, well a | control promoter light, run 1, well b | uninduced reporter light, run 1, well a | activity call |
| --- | --- | --- | --- | --- | --- | --- | --- |
| smg (GeneID 39034) | 1 | 99505 | 91505 | 56505 | 24582 | 9355 | inactive |
| Gale (GeneID 38076) | 1 | 90785 | 96800 | 1.64e5 | 1.65e5 | 7670 | inactive |
| Sems (GeneID 40315) | 1 | 35480 | 27145 | 38890 | 34955 | 2380 | inactive |
| RhoGAP5A (GeneID 31473) | 1 | 1.92e5 | 1.76e5 | 2.28e5 | 2.34e5 | 12810 | inactive |
| CG14907 + Mettl4 | 1 | 2.37e5 | 2.46e5 | 1.98e5 | 2.20e5 | 17440 | inactive |
| CG14907 + Mettl4 | 2 | 2.90e5 | 2.75e5 | 2.46e5 | 2.72e5 | 22415 | inactive |
| CG32374 (GeneID 38848) | 1 | 1.92e5 | 1.46e5 | 1.68e5 | 1.26e5 | 6245 | inactive |
| Sdc (GeneID 37447) | 1 | 51945 | 51000 | 37305 | 24045 | 2195 | inactive |
| Dnaaf3 (GeneID 37125) | 1 | 1.17e5 | 82585 | 97935 | 69825 | 7805 | inactive |
| noc (GeneID 34847) | 1 | 1.76e5 | 1.82e5 | 1.46e5 | 1.26e5 | 15085 | inactive |
| RhoGEF2 (GeneID 36915) | 1 | 1.15e5 | 1.26e5 | 1.79e5 | 2.43e5 | 9180 | inactive |
| Jarid2 (GeneID 39103) | 1 | 96025 | 1.27e5 | 85345 | 36030 | 9540 | inactive |
| CG16965 (GeneID 34607) | 1 | 1.36e5 | 1.64e5 | 1.78e5 | 1.76e5 | 14000 | inactive |
| CG8757 (GeneID 39528) | 1 | 1.75e5 | 1.78e5 | 2.97e5 | 1.87e5 | 8120 | inactive |
| Trpgamma (GeneID 34991) | 1 | 7955 | 7830 | 11638 | 8918 | 700 | inactive |
| CG7798 (GeneID 36798) | 1 | 1.27e5 | 1.18e5 | 1.12e5 | 1.00e5 | 9342 | inactive |
| r (GeneID 32640) | 1 | 31080 | 37605 | 47025 | 29285 | 6510 | inactive |
| r (GeneID 32640) | 2 | 56210 | 54960 | 67180 | 57850 | 8755 | inactive |
| CG14330 (GeneID 42102) | 1 | 2.24e5 | 2.30e5 | 2.19e5 | 2.25e5 | 18525 | inactive |
| CG13581 (GeneID 37911) | 1 | 1.63e5 | 1.54e5 | 1.37e5 | 1.58e5 | 11935 | inactive |
| Strica (GeneID 35528) | 1 | 1.92e5 | 1.61e5 | 2.19e5 | 1.98e5 | 13855 | inactive |
| Gr59a (GeneID 117485) | 1 | – | – | – | – | – | inactive |
| Try29F (GeneID 34226) | 1 | 1.58e5 | 1.39e5 | 88030 | 1.12e5 | 21920 | inactive |
| ste24b (GeneID 36907) | 1 | 1.30e5 | 97655 | 1.14e5 | 1.30e5 | 5945 | inactive |
| Map60 (GeneID 35991) | 1 | 1.35e5 | 1.57e5 | 1.37e5 | 1.28e5 | 12350 | inactive |
| lush (GeneID 40136) | 1 | 1.77e5 | 1.30e5 | 1.11e5 | 1.16e5 | 13520 | inactive |
| CG3634 (GeneID 40301) | 1 | 1.12e5 | 1.11e5 | 1.22e5 | 1.14e5 | 10000 | inactive |
| Pmvk (GeneID 35255) | 1 | 33650 | 30615 | 41675 | 30510 | 2735 | inactive |
| alpha-Man-IIa (GeneID 41126) | 1 | 41245 | 46755 | 43395 | 40180 | 2770 | inactive |
| CG17742 (retired record) (GeneID 38787) | 1 | 10550 | 8510 | 13050 | 11760 | 2792 | inactive |
| Or42a (GeneID 35514) | 1 | 2.38e5 | 2.25e5 | 2.71e5 | 2.45e5 | 16605 | inactive |
| Rac2 (GeneID 38831) | 1 | 1.80e5 | 1.39e5 | 1.82e5 | 1.70e5 | 7670 | inactive |
| Ts (GeneID 33499) | 1 | 2.22e5 | 1.93e5 | 2.75e5 | 2.65e5 | 14940 | inactive |
| CG16790 (GeneID 41155) | 1 | 66565 | 57000 | 56845 | 46495 | 3375 | inactive |

Part of the list above, showing only “control promoter light, run 1, well a”:
noc (GeneID 34847): 1.46e5
RhoGEF2 (GeneID 36915): 1.79e5
Jarid2 (GeneID 39103): 85345
CG16965 (GeneID 34607): 1.78e5
CG8757 (GeneID 39528): 2.97e5
Trpgamma (GeneID 34991): 11638
